The values below come from article doi:10.1101/608976.

In assay [1] the target is Cas1(Q287A/I291G), C-terminal tail mutant, StrepII-tagged (E. coli) (UniProt Q46896). The experiment in a line: pull-down + SEC.
The target of assay [2] is T1, Cas1 (wild type, E. coli type I-E), StrepII-tagged (E. coli) (UniProt Q46896).
T1 sequence: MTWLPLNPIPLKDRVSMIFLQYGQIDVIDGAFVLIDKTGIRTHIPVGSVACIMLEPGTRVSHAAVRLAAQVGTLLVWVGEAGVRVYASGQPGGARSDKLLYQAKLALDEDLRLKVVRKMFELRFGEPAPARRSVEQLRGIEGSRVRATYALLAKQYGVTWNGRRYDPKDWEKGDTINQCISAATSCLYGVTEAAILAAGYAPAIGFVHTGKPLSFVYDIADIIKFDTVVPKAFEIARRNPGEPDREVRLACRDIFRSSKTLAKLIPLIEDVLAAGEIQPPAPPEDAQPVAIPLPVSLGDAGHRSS
The experiment in a line: pull-down + SEC.

These are yes or no findings as the source states them, for the method shown. Binding seen in cells or lysates may run through a third protein. Some results given as binding are weak or reduced against the parent protein; the word gives no strength. For some assays here: Sequences can lack the tags named with a protein.

B1: Cas2 (E. coli type I-E) (protein, UniProt P45956 1-94)
chain: MSMLVVVTENVPPRLRGRLAIWLLEVRAGVYVGDVSAKIREMIWEQIAGLAEEGNVVMAWATNTETGFEFQTFGLNRRTPVDLDGLRLVSFLPV
As for B1, the binding result in assay [1] and in assay [2] was “binds” in each case.
